Reference: PubChem BioAssay AID2685 (National Center for Advancing Translational Sciences (NCATS), 2010)
The other results are listed elsewhere or left out. Shown are side measurements of this screen, not its main read-out; they come without a call. The list favours compounds with an active or inconclusive main result. The note in brackets gives the kind of curve behind each potency; many fits are weak.

Assay: qHTS Assay for Lipid Storage Modulators in Drosophila S3 Cells;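 on cell number change: cells counted by Cell Tracker Red CMTPX staining in the red channel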
Conditions: BODIPY lipid droplet fluorescence, 18-24 h; for cell number change: measured here: cell count max response, cells fed with added oleic acid
In short: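 Drosophila S3 cells loaded with oleic acid (400 uM, as added) and compounds at several concentrations; lipid droplets imaged by 488-nm laser-scanning cytometry, 500–530 nm intensity and object ratio to cell channel. Percent activity normalized to 20 uM Triacsin C.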

[1] = measured here: lipid fluorescence (Fed channel) AC50, cells fed with added oleic acid
[2] = measured here: cell number channel AC50, cells fed with added oleic acid

SMILES | cell number change | AC50 [1] | AC50 [2]
Cc1ccc(/C=N/NC(=O)Cn2cnc3c2c(=O)n(C)c(=O)n3C)s1 | 24.8% | 10.3 µM [rising, partial curve, poor fit] | 
CC1CN(C(=O)COC(=O)c2cccc(NS(=O)(=O)c3ccccc3)c2)CC(C)O1 (stereo not given) | -24.4% | 2.59 µM [falling, full curve] | 2.59 µM [falling, full curve, poor fit]
CCCOc1ccc(-c2nnn(CC(=O)Nc3cccc(C(=O)OC)c3)n2)cc1 | 37.9% |  | 3.26 µM [rising, full curve, poor fit]
CN(C)CC(O)CN(c1ccccc1)c1ccccc1 (stereo not given) | 7.58% | 0.00461 µM [falling, full curve, poor fit] | 
O=C(CCN1C(=O)/C(=C/c2cccc(Br)c2)SC1=S)NNC(=O)c1cccnc1 | -11.3% |  | 
Cc1nc(Cl)sc1C(=O)Nc1ccc(C(C)(C)C)cc1 |  | 6.51 µM [falling, single point] | 
O=C1CCC(C(=O)N2CCN(c3ccccc3)CC2)CN1CC1CCCCC1 (stereo not given) |  |  | 0.731 µM [rising, single point]
O=C(CSc1nccc(=O)[nH]1)c1ccco1 | -37.7% | 0.58 µM [falling, full curve] | 0.731 µM [falling, full curve]
COc1ccc(C2CC(c3ccc(OC)cc3)n3nc(NS(C)(=O)=O)nc3N2)cc1 (stereo not given) | 0.826% | 0.0058 µM [falling, full curve, poor fit] | 
O=C(CCc1nnc(-c2ccc3c(c2)OCO3)o1)NCCc1ccccc1F |  | 0.58 µM [falling, single point] | 
COc1cc2ncnc(NCc3ccc(C)cc3)c2cc1OC | -2.21% | 29.1 µM [falling, single point] | 
O=C1ON=C(c2ccccc2)/C1=C/c1ccco1 |  | 29.1 µM [falling, single point] | 
CCS(=O)(=O)N1CCN(c2nc(-c3ccccc3)cs2)CC1 | -0.0729% | 6.51 µM [rising, single point] | 
O=C(COc1ccccc1)NCC(=O)Nc1cccc(S(=O)(=O)NC2=NCCC2)c1 | -42.1% |  | 32.6 µM [falling, single point]
Cc1cc(C)c2c(=O)[nH]c(SCC(=O)c3ccc(C(C)C)cc3)nc2n1 | -7.98% |  | 1.3 µM [falling, full curve, poor fit]
COc1ccc(-c2cc(C(F)F)n3ncc(C(=O)N4CCN5CCCC5C4)c3n2)cc1 (stereo not given) | -11.8% | 5.8 µM [rising, single point] | 
O=C1CC(N2CCC(c3nc4ccccc4[nH]3)CC2)C(=O)N1c1cccc(F)c1 (stereo not given) | -24.6% | 0.146 µM [falling, full curve, poor fit] | 0.0731 µM [falling, full curve, poor fit]
Cn1c(=O)[nH]c2c(nc(-c3ccc(Cl)cc3)n2C)c1=O | 67.6% |  | 29.1 µM [rising, single point]
CCCNC(=O)c1n[nH]c(=O)c2ccccc12 | 6.6% | 3.66 µM [rising, single point] | 
NC12CC3CC(C1)CC(CC(=O)O)(C3)C2 | -24.3% |  | 
CCOCCCNC(=O)CN(c1cc([N+](=O)[O-])ccc1OC)S(C)(=O)=O | 0.723% | 2.06 µM [falling, partial curve] | 

SMILES | cell number change | AC50 [1] | AC50 [2]
Cc1ccc(-n2nc3c(=O)n(CCCC(=O)N4CCCCC4)nc(C)c3c2C)cc1 | -1.42% |  | 
Nc1cc(C(=O)OCC(=O)Nc2ccc(N3CCOCC3)cc2)ccc1Cl | -12% | 4.11 µM [falling, full curve, poor fit] | 
CNC(=O)c1c(C)nc(SCC(=O)NCc2ccc(OC)cc2)c(C#N)c1-c1ccco1 | -12.5% | 6.51 µM [rising, partial curve, poor fit] | 
Cc1cccn2c(=O)c(C=O)c(Cl)nc12 | 19.2% |  | 
CSCCC(NC(=O)c1ccccc1Br)C(=O)NC(C)CCc1ccccc1 (stereo not given) | 22.4% | 11.2 µM [rising, single point] | 
CCN(CC)CCNC(=O)c1ccccc1N |  | 0.116 µM [falling, full curve, poor fit] | 
O=C(C1CCC(CNc2c(N3CCCCC3)c(=O)c2=O)CC1)N1CCN(c2ccccn2)CC1 (stereo not given) | 18% | 29.1 µM [rising, single point] | 
Cc1cc(C)c(C#N)c(Cl)n1 |  |  | 0.082 µM [rising, full curve, poor fit]
CN(C)C(CNC(=O)c1ccccc1C(F)(F)F)c1ccco1 (stereo not given) | -0.806% |  | 
CC(C)(C)NC(=O)CN(C(=O)CS(=O)CC(=O)Nc1ccc(F)cc1)c1ccc(F)c(Cl)c1 (stereo not given) | 3.41% | 3.66 µM [rising, single point] | 
Cc1ccc(S(=O)(=O)NCCC(=O)Nc2ccc(S(=O)(=O)NC(C)C)cc2)cc1 |  | 1.03 µM [rising, full curve] | 
Cc1ccccc1OCc1nnc(SCC(=O)N2c3ccccc3Sc3ccc(Cl)cc32)o1 | -19.5% | 20.6 µM [falling, partial curve, poor fit] | 
CCc1nnc(NC(=O)C2CC(=O)N(C3CCCCC3)C2)s1 (stereo not given) | -31% |  | 
O=C(COC(=O)c1ccc(Cl)nc1)NCCNC(=O)COC(=O)c1ccc(Cl)nc1 | 6.39% | 0.184 µM [falling, full curve, poor fit] | 
CC(C)CCNC(=O)COC(=O)c1cc(Br)c(Br)s1 | -12.3% |  | 
COc1ccc2c(c1)C(=O)N(c1ccccc1OC)C(=O)C2 | 19.5% |  | 
CCN(CC)CCNC(=O)c1c(O)c2cccc3c2n(c1=O)CCC3 | 49.2% |  | 4.11 µM [rising, partial curve]
Cc1ccc(N2CC(C(=O)N/N=C/c3sccc3C)CC2=O)cc1 (stereo not given) | -23.1% | 14.6 µM [rising, partial curve, poor fit] | 2.31 µM [falling, single point]
O=C(c1ccc(F)c(S(=O)(=O)N2CCOCC2)c1)N1CCN(c2ccc(F)cc2)CC1 | 3.01% | 6.51 µM [rising, single point] | 
O=c1[nH][nH]c(C(F)(F)F)c1C=Nc1cccc(Cl)c1 | 19% |  | 

Record cards, from the list above.
O=C(C1CCC(CNc2c(N3CCCCC3)c(=O)c2=O)CC1)N1CCN(c2ccccn2)CC1 (stereo not given) in the list: cell number change: 18%; AC50 [1]: 29.1 µM [rising, single point]
Cc1cc(C)c(C#N)c(Cl)n1 in the list: AC50 [2]: 0.082 µM [rising, full curve, poor fit]
